# Measured values reported in the supplement of paper PMC11732987, “Enantioselective OTUD7B fragment discovery through chemoproteomics screening and high-throughput optimisation” (Communications Chemistry, 2025).
# Some of the results follow. The data scatter; read single values as rough.
# Compound: ClCC(=O)N[C@@H]1CCCc2ccccc12
# Experiment: log2 mean competition ratio of IA-DTB cysteine labelling (DMSO/compound) (log2 ratio); higher = stronger cysteine engagement by compound
# Settings: 50 µM; treatment time: 4 h; cell line lysate: HEK293T
# Description: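 IA-DTB competitive cysteine chemoproteomics in HEK293T RIPA lysate. Lysates were treated with compound 29 or 30 at 50 or 200 µM for 4 h, then IA-DTB (500 µM, 1 h), trypsin-digested, NeutrAvidin-enriched and analysed by diaPASEF. Competition ratio = intensity DMSO / intensity compound (n=4 treated, n=64 DMSO); binding: mean log2 CR ≥ 1 and p ≤ 0.05 plus QC filters. Target is the cysteine site.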
row,Target,log2 mean competition ratio
1,RAD54B C789 (UniProt Q9Y620),-0.311
2,RAD51C C68 (UniProt O43502),0.104
3,PTDSS1 C4 (UniProt P48651),0.139
4,PTK2 C288 (UniProt Q05397),0.538
5,RABEPK C115 (UniProt Q7Z6M1),-0.0409
6,PSMA6 C47 (UniProt P60900),0.191
7,RAB10 C124 (UniProt P61026),-0.0737
8,RAD54L C20 (UniProt Q92698),0.0738
9,RAD50 C633,0.273
10,PSMD11 C202 (UniProt O00231),-0.12
11,PTPN18 C46 (UniProt Q99952),-0.0426
12,RAB3GAP2 C828 (UniProt Q9H2M9),-0.247
13,PSMD4 C58,-0.102
14,RAB39A C185,-0.188
15,PSMD8 C173,0.183
16,PRR14L C541 (UniProt Q5THK1),0.0117
17,PTPN13 C2229 (UniProt Q12923),-0.266
18,PSAP C33 (UniProt P07602),0.387
19,RABEP1 C718 (UniProt Q15276),0.121
20,RAB22A C120 (UniProt Q9UL26),-0.164

# Same assay, conditions: 200 µM; treatment time: 4 h; cell line lysate: HEK293T
row,Target,log2 mean competition ratio
1,RAD54B C789 (UniProt Q9Y620),0.0546
2,RAD51C C68 (UniProt O43502),-0.159
3,PTDSS1 C4 (UniProt P48651),0.183
4,PTK2 C288 (UniProt Q05397),-0.332
5,RABEPK C115 (UniProt Q7Z6M1),-0.0617
6,PSMA6 C47 (UniProt P60900),-0.0259
7,RAB10 C124 (UniProt P61026),-0.224
8,RAD54L C20 (UniProt Q92698),-0.0615
9,RAD50 C633,0.406
10,PSMD11 C202 (UniProt O00231),-0.188
11,PTPN18 C46 (UniProt Q99952),-0.0979
12,RAB3GAP2 C828 (UniProt Q9H2M9),-0.342
13,PSMD4 C58,-0.391
14,RAB39A C185,0.19
15,PSMD8 C173,-0.563
16,PRR14L C541 (UniProt Q5THK1),-0.0334
17,PTPN13 C2229 (UniProt Q12923),-0.117
18,PSAP C33 (UniProt P07602),0.315
19,RABEP1 C718 (UniProt Q15276),-0.186
20,RAB22A C120 (UniProt Q9UL26),0.0847
